Assay results: ChEMBL document CHEMBL4316593 (Eur J Med Chem, 2019)
This continues a long series; more values of the same kind are listed elsewhere.

What was measured:
Format in all cases: cell-based
Conditions in all cases: U-87MG ATCC
[1] = Inhibition of RTK/PI3K/AKT/mTOR signaling in human U87 cells assessed as up regulation of family with sequence similarity 208 member A gene expression at cytotoxic IC50 measured after 48 hrs relative to control
[2] = Inhibition of RTK/PI3K/AKT/mTOR signaling in human U87 cells assessed as down regulation of CAPN2 gene expression at cytotoxic IC50 measured after 48 hrs relative to control
[3] = Inhibition of RTK/PI3K/AKT/mTOR signaling in human U87 cells assessed as down regulation of GINS3 gene expression at cytotoxic IC50 measured after 48 hrs relative to control
[4] = Inhibition of RTK/PI3K/AKT/mTOR signaling in human U87 cells assessed as up regulation of spexin hormone gene expression at cytotoxic IC50 measured after 48 hrs relative to control
[5] = Inhibition of RTK/PI3K/AKT/mTOR signaling in human U87 cells assessed as up regulation of SYT7 gene expression at cytotoxic IC50 measured after 48 hrs relative to control
[6] = Inhibition of RTK/PI3K/AKT/mTOR signaling in human U87 cells assessed as up regulation of SUSD3 gene expression at cytotoxic IC50 measured after 48 hrs relative to control
[7] = Inhibition of RTK/PI3K/AKT/mTOR signaling in human U87 cells assessed as down regulation of HERC6 gene expression at cytotoxic IC50 measured after 48 hrs relative to control
[8] = Inhibition of RTK/PI3K/AKT/mTOR signaling in human U87 cells assessed as up regulation of kallikrein related peptidase 6 gene expression at cytotoxic IC50 measured after 48 hrs relative to control
[9] = Inhibition of RTK/PI3K/AKT/mTOR signaling in human U87 cells assessed as down regulation of LAMA3 gene expression at cytotoxic IC50 measured after 48 hrs relative to control
[10] = Inhibition of RTK/PI3K/AKT/mTOR signaling in human U87 cells assessed as down regulation of CD99L2 gene expression at cytotoxic IC50 measured after 48 hrs relative to control
[11] = Inhibition of RTK/PI3K/AKT/mTOR signaling in human U87 cells assessed as down regulation of NCOA1 gene expression at cytotoxic IC50 measured after 48 hrs relative to control
[12] = Inhibition of RTK/PI3K/AKT/mTOR signaling in human U87 cells assessed as down regulation of FAM177A1 gene expression at cytotoxic IC50 measured after 48 hrs relative to control
[13] = Inhibition of RTK/PI3K/AKT/mTOR signaling in human U87 cells assessed as down regulation of AHR gene expression at cytotoxic IC50 measured after 48 hrs relative to control
[14] = Inhibition of RTK/PI3K/AKT/mTOR signaling in human U87 cells assessed as up regulation of peroxisome proliferator activated receptor gamma gene expression at cytotoxic IC50 measured after 48 hrs relative to control
[15] = Inhibition of RTK/PI3K/AKT/mTOR signaling in human U87 cells assessed as down regulation of MAP3K6 gene expression at cytotoxic IC50 measured after 48 hrs relative to control
[16] = Inhibition of RTK/PI3K/AKT/mTOR signaling in human U87 cells assessed as down regulation of ZSCAN9 gene expression at cytotoxic IC50 measured after 48 hrs relative to control
[17] = Inhibition of RTK/PI3K/AKT/mTOR signaling in human U87 cells assessed as up regulation of ribosomal protein L34 gene expression at cytotoxic IC50 measured after 48 hrs relative to control
[18] = Inhibition of RTK/PI3K/AKT/mTOR signaling in human U87 cells assessed as up regulation of follistatin like 3 gene expression at cytotoxic IC50 measured after 48 hrs relative to control
[19] = Inhibition of RTK/PI3K/AKT/mTOR signaling in human U87 cells assessed as up regulation of DPH2 homolog gene expression at cytotoxic IC50 measured after 48 hrs relative to control
[20] = Inhibition of RTK/PI3K/AKT/mTOR signaling in human U87 cells assessed as up regulation of RACK1 gene expression at cytotoxic IC50 measured after 48 hrs relative to control
[21] = Inhibition of RTK/PI3K/AKT/mTOR signaling in human U87 cells assessed as down regulation of SLC7A11 gene expression at cytotoxic IC50 measured after 48 hrs relative to control
[22] = Inhibition of RTK/PI3K/AKT/mTOR signaling in human U87 cells assessed as up regulation of solute carrier family 35 member A5 gene expression at cytotoxic IC50 measured after 48 hrs relative to control
[23] = Inhibition of RTK/PI3K/AKT/mTOR signaling in human U87 cells assessed as down regulation of TUBA1C gene expression at cytotoxic IC50 measured after 48 hrs relative to control
[24] = Inhibition of RTK/PI3K/AKT/mTOR signaling in human U87 cells assessed as down regulation of CRTC2 gene expression at cytotoxic IC50 measured after 48 hrs relative to control
[25] = Inhibition of RTK/PI3K/AKT/mTOR signaling in human U87 cells assessed as down regulation of TAOK3 gene expression at cytotoxic IC50 measured after 48 hrs relative to control
[26] = Inhibition of RTK/PI3K/AKT/mTOR signaling in human U87 cells assessed as down regulation of MCPH1 gene expression at cytotoxic IC50 measured after 48 hrs relative to control
[27] = Inhibition of RTK/PI3K/AKT/mTOR signaling in human U87 cells assessed as down regulation of EIF4G2 gene expression at cytotoxic IC50 measured after 48 hrs relative to control
[28] = Inhibition of RTK/PI3K/AKT/mTOR signaling in human U87 cells assessed as down regulation of PHLPP2 gene expression at cytotoxic IC50 measured after 48 hrs relative to control
[29] = Inhibition of RTK/PI3K/AKT/mTOR signaling in human U87 cells assessed as down regulation of ITSN2 gene expression at cytotoxic IC50 measured after 48 hrs relative to control
[30] = Inhibition of RTK/PI3K/AKT/mTOR signaling in human U87 cells assessed as up regulation of FBN3 gene expression at cytotoxic IC50 measured after 48 hrs relative to control
[31] = Inhibition of RTK/PI3K/AKT/mTOR signaling in human U87 cells assessed as down regulation of SRP68 gene expression at cytotoxic IC50 measured after 48 hrs relative to control
[32] = Inhibition of RTK/PI3K/AKT/mTOR signaling in human U87 cells assessed as down regulation of UBTF gene expression at cytotoxic IC50 measured after 48 hrs relative to control

Work on `CC(=O)C(=NNc1ccccc1C#N)C(C)=O` yielded a log2FC [1] of 1.46, a log2FC [2] of -0.913 and a log2FC [3] of -1.63. The log2FC [4] was 1.44, the log2FC [5] was 0.611 and the log2FC [6] was 2.3. It also gave a log2FC [7] of -1.57, a log2FC [8] of 1.33 and a log2FC [9] of -0.893. For the same molecule, the log2FC [10] was -1.45, the log2FC [11] was -0.896 and the log2FC [12] was -0.821. It also gave a log2FC [13] of -1.09, a log2FC [14] of 1.16 and a log2FC [15] of -1.01. The log2FC [16] was -1.22, the log2FC [17] was 0.704 and the log2FC [18] was 1.36. For the same molecule, the log2FC [19] was 0.664, the log2FC [20] was 0.439 and the log2FC [21] was -0.563. For the same molecule, the log2FC [22] was 0.705, the log2FC [23] was -0.879 and the log2FC [24] was -0.521. For the same molecule, the log2FC [25] was -0.924, the log2FC [26] was -0.783 and the log2FC [27] was -0.671. It also gave a log2FC [28] of -1.17, a log2FC [29] of -0.721 and a log2FC [30] of 2.13. The log2FC [31] was -0.483 and the log2FC [32] was -0.521.
